Patent publication US20140030267A1, “COMPOSITIONS, METHODS AND KITS RELATING TO RESISTIN” (The Trustees of the University of Pennsylvania, priority 1999, published 2014)
At least one compound was matched to its structure with a doubt left.

How the values were obtained:
resistin gene expression = experiment: Northern blot of resistin gene expression in 3T3-L1 adipocytes treated with TZD; assay type: cell-based, murine; settings: TZD 1 μM
Protocol: 3T3-L1 cells were differentiated to adipocytes then treated with the indicated vehicles (ethanol [EtOH] or dimethylsulfoxide [DMSO]) or with the indicated TZD compounds (each at 1 μM). Then, RNA was prepared and analyzed using Northern blot analysis using resistin cDNA probe.
FIG. 6 is an image of a Northern blot depicting the time course of resistin expression down-regulation by rosiglitazone. BRL49653 (rosiglitazone) was used at a concentration of 1 μM in DMSO. The Northern blot was probed using mouse resistin cDNA. The position of resistin mRNA is indicated in the image. 3T3-L1 cells were differentiated to adipocytes then treated with rosiglitazone (1 μM) for the indicated times (in hours) before RNA was isolated. Resistin expression was examined using Northern analysis using resistin cDNA probe.
To clone and identify resistin, 3T3-L1 cells were differentiated into adipocytes using a standard protocol using differentiation medium (DM) containing dexamethasone, insulin, isobutylmethylxanthine, and fetal bovine serum as described in Green and Kehinde (1975, Cell 5:19-27) and Green and Meuth (1974, Cell 3:127-133). On the seventh day of culture, the cells were treated with either dimethylsulfoxide (DMSO) or 1 micromolar BRL49653 (rosiglitazone) in DMSO. Forty-eight hours later, total RNA was prepared from each cell population using standard methods as described in, for example, Sambrook et al. (1989, Molecular Cloning: A Laboratory Manual, Cold Spring Harbor Laboratory Press, New York) and Ausubel et al. (1997, Current Protocols in Molecular Biology, Green & Wiley, New York). cDNA was then prepared using I microgram total RNA from each population using a Cap finder cDNA synthesis kit (Clontech Laboratories, Inc., Palo Alto, Calif.) following the manufacturer's instructions.
Clones whose expression was reduced in the rosiglitazone treated cDNA sample were grown-up, and down-regulation by rosiglitazone was confirmed using Northern blot analysis according to standard methods as described in, e.g., Sambrook et al., supra, and Ausubel et al., supra. […]

aP2 gene expression = experiment: Northern blot of aP2 gene expression in 3T3-L1 adipocytes treated with rosiglitazone; assay type: cell-based, murine; settings: rosiglitazone 1 μM, 48 hours
[1] = tested on: resistin secretion from adipocytes; experiment: Western blot of resistin secreted into medium by 3T3-L1 adipocytes; assay type: cell-based, murine; settings: 1 μM in DMSO, 4 days, Western blot of media
[2] = human studies; cited from earlier work

Compound: CCc1ccc(CCOc2ccc(CC3SC(=O)NC3=O)cc2)nc1 (stereo not drawn) [pioglitazone]
- resistin gene expression (RNA encoding resistin) (resistin gene expression): Down-regulation

Compound: CN(CCOc1ccc(CC2SC(=O)NC2=O)cc1)c1ccccn1 (stereo not drawn) [rosiglitazone]
- resistin gene expression (RNA encoding resistin) (resistin gene expression): markedly down-regulated
- aP2 gene expression (aP2 gene expression): increased
- resistin secretion from adipocytes [1]: reduced

Compound: Cc1c(C)c2c(c(C)c1O)CCC(C)(COc1ccc(CC3SC(=O)NC3=O)cc1)O2 (stereo not drawn) [troglitazone]
- resistin gene expression (RNA encoding resistin) (resistin gene expression): Down-regulation
- patients with NIDDM who responded to treatment [2]: approximately 75%
